# Assay results from paper PMC3325209.
# B1: Arabidopsis PCaP1 with a glycine to alanine substitution at position 2, fused to the C-terminal half of citrine (protein, UniProt Q96262 1-225)
# chain: MAYWNSKVVPKFKKLFEKNSAKKAAAAEATKTFDESKETINKEIEEKKTELQPKVVETYEATSAEVKALVRDPKVAGLKKNSAAVQKYLEELVKIEFPGSKAVSEASSSFGAGYVAGPVTFIFEKVSVFLPEEVKTKEIPVEEVKAEEPAKTEEPAKTEGTSGEKEEIVEETKKGETPETAVVEEKKPEVEEKKEEATPAPAVVETPVKEPETTTTAPVAEPPKP
# Molecular target: TuMV P3N-PIPO fused to the N-terminal half of citrine (Turnip mosaic virus (TuMV))
# Experiment: split reporter; BiFC with halves of citrine (YN, YC) in N. benthamiana leaves, agroinfiltration at A600 0.05, confocal microscopy at about 38 h post agroinfiltration
binder,measurement,value
B1,binding,binds

# These are yes or no findings as the source states them, for the method shown. Binding seen in cells or lysates may run through a third protein. Binding can be weak; no strength is given. Tags and fused reporters may be left off the sequences shown.
